Measured values published in publication PMC10280841.
Results are given in words; binding and its absence hold for the method and conditions named. In cells and extracts the contact can be indirect. Some entries that bind do so weakly or less than the wild type.

Target: T1, LRP10 in female E4FAD mouse brain (mouse (endogenous in E4FAD mouse brain)) (UniProt Q7TQH7)
T1 sequence: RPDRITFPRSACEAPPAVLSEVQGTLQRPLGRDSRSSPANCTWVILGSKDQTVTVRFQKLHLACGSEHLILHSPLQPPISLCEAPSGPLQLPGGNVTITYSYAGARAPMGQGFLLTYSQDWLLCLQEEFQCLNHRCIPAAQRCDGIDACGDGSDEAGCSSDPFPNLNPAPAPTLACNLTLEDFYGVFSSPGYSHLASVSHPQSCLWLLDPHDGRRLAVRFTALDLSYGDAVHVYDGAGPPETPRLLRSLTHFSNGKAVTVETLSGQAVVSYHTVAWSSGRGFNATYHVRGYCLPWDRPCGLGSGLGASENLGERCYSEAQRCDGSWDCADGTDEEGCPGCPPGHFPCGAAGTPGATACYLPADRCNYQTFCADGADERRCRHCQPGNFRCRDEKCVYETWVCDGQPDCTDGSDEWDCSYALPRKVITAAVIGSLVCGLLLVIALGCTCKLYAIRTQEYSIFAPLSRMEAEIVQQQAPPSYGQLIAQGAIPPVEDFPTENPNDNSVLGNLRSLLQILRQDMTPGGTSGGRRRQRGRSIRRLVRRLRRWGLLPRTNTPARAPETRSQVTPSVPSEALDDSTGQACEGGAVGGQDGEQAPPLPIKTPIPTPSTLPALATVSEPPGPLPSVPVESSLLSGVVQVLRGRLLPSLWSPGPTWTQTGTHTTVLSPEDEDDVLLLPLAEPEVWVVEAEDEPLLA
Assay: co-IP; pull-down by anti-LRP10 antibody from female E4FAD mouse brain lysates, LRP10 OE versus scramble controls; CD34, NBR1 and ACBD3 detected and quantified as a percentage of the control

B1: ACBD3 in female E4FAD mouse brain (protein, UniProt Q8BMP6 1-525)
chain: MAAQLNVEQLEVSLDGLTLSPDSEERPGAEGAPPQTPPSSAPGNGLGSGASGQQREPGEAAAEGAAEEARRMEQHWGFGLEELYGLALRFYKIKDGKAFHPTYEEKLKFVALHKQVLLGPYNPDTSPEVGFFDVLGNDRRREWAALGNMSKEDAMVEFVKLLNKCCPLLSAYVASHRIEKEEEEKRRKAEEERRQREEEERERLQKEEEKRKREKEDRLRREEEERRRIEEERLRLEQQKQQIMAALNSQTAVQFQQYAAQQYPGNYEQQQILIRQLQEQHYQQYMQQLYQVQLAQQQAALQKQQEVVMAGASLPASSKVNTAGASDTLSVNGQAKTHTENSEKVLEPEAAEEALENGPKDSLPVIAAPSMWTRPQIKDFKEKIRQDADSVITVRRGEVVTVRVPTHEEGSYLFWEFATDSYDIGFGVYFEWTDSPNAAVSVHVSESSDEEEEEEENVTCEEKAKKNANKPLLDEIVPVYRRDCHEEVYAGSHQYPGRGVYLLKFDNSYSLWRSKSVYYRVYYTR
Q: With B1 as the binder, how does the binding read?
A: binds

B2: CD34 in female E4FAD mouse brain (protein, UniProt Q64314 35-382)
chain: TTETSTQGISPSVPTNESVEENITSSIPGSTSHYLIYQDSSKTTPAISETMVNFTVTSGIPSGSGTPHTFSQPQTSPTGILPTTSDSISTSEMTWKSSLPSINVSDYSPNNSSFEMTSPTEPYAYTSSSAPSAIKGEIKCSGIREVRLAQGICLELSEASSCEEFKKEKGEDLIQILCEKEEAEADAGASVCSLLLAQSEVRPECLLMVLANSTELPSKLQLMEKHQSDLRKLGIQSFNKQDIGSHQSYSRKTLIALVTSGVLLAILGTTGYFLMNRRSWSPTGERLGEDPYYTENGGGQGYSSGPGASPETQGKANVTRGAQENGTGQATSRNGHSARQHVVADTEL
Q: B2 was tested. Which binding did it give?
A: binds
